Reference: patent US20040242565A1, “Medicinal composition for prevention of or treatment for cerebrovascular disorder and cardiopathy” (priority 2001, published 2004)
For at least one compound, name, drawing or mass did not settle the structure.

Tested on: Neuronal Death Model by Transient Occlusion of Both Common Carotid Arteries of Mongolian Gerbil
Conditions: 3 mg/kg intraperitoneally immediately after restarting blood flow, separate administration

COCCOC(=O)C1=C(C)NC(C)=C(C(=O)OC(C)C)C1c1cccc([N+](=O)[O-])c1 (stereo not shown) [Nimodipine, nimodipine]
inhibition of neuronal death (pyramidal cells in hippocampus CA1 region, seventh day): did not inhibit neuronal death
